Test results as given in PubChem BioAssay AID220 (DTP/NCI, 2004).
The list shows only some results of the screen, not a fair sample: it gathers tests that were run many times, whatever their T/C, doses with no T/C, and many T/C values between a quarter and a half above the control. Other doses and runs of a compound stand elsewhere. T/C is the treated group as % of the vehicle group. Schedule codes are those of the source, taken here to give the interval after Q, in days (D) or hours (H), and the number of doses after X. Some T/C values carry the count of animals alive at the toxicity check (mostly the fifth day); without a count, all were alive then. Some entries hold several experiments; their values stand side by side, smallest first. Some entries give survivors of the animals treated and no T/C: the source files T/C as zero there, which appears to mark a toxic dose or a test without result, not a measured value. Counts of survivors are from the toxicity check (mostly the fifth day) where no day follows; animals may have died later.

Tested on: CD8F1 mice, subcutaneous mammary adenocarcinoma, T/C%
Assay: NCI In Vivo Anticancer Drug Screen. Data for tumor model Mammary Adenocarcinoma CD8F1 (subcutaneous) in CD8F1
Conditions: higher T/C = larger tumour
Procedure, shortened: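 Antitumor activity is assessed in transplantable-tumor mice by comparing the treated group with a vehicle-treated control group. Survival or tumor size serves as the measure, reported as T divided by C.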

[1] = T/C endpoint: median tumor weight (est.), dose: 12.5 mg/kg/injection, schedule: Q07DX005 (ip), vehicle: saline with Tween-80
[2] = T/C endpoint: median tumor weight (est.), dose: 100.0 mg/kg/injection, schedule: Q07DX005 (ip), vehicle: saline with Tween-80
[3] = T/C endpoint: median tumor weight (est.), dose: 25.0 mg/kg/injection, schedule: Q07DX005 (ip), vehicle: saline with Tween-80, evaluated on day 30

For `Cc1c(CNc2ccc(C(=O)NC(CC(=O)O)C(=O)O)cc2)ccc2nc(N)nc(N)c12` (stereo not drawn), the survivor count (T/C endpoint: median tumor weight (est.), dose: 6.25 mg/kg/injection, schedule: Q07DX005 (ip), vehicle: saline with Tween-80) was 4 of 10 on day 30, the survivor count [1] was 0 of 10 on day 30 and 6 of 10 on day 30 and the survivor count (T/C endpoint: median tumor weight (est.), dose: 25.0 mg/kg/injection, schedule: Q07DX005 (ip), vehicle: saline with Tween-80) was 0 of 10 on day 30 and 3 of 10 on day 30. For the same molecule, the survivor count (T/C endpoint: median tumor weight (est.), dose: 50.0 mg/kg/injection, schedule: Q07DX005 (ip), vehicle: saline with Tween-80) was 0 of 10 on day 30 and the survivor count [2] was 0 of 10 on day 30.
With `N#Cc1nc(C#N)c(Sc2ccccc2)c(Sc2ccccc2)c1Sc1ccccc1` the T/C (T/C endpoint: median tumor weight (est.), dose: 6.25 mg/kg/injection, schedule: Q07DX005 (ip), vehicle: saline with Tween-80, evaluated on day 30) was 125 % of control, the survivor count [1] was 5 of 10 on day 30 and the T/C [3] was 133 [9 of 10 alive on day 30] and 135 % of control.
With `Cc1ccc2c(c1)C(=O)N(CC[P+](c1ccccc1)(c1ccccc1)c1ccccc1)C2=O` the T/C (T/C endpoint: mean tumor weight, dose: 3.12 mg/kg/injection, schedule: Q07DX006 (ip), vehicle: water, evaluated on day 42) was 139 % of control, the survivor count (T/C endpoint: mean tumor weight, dose: 12.5 mg/kg/injection, schedule: Q07DX006 (ip), vehicle: water) was 3 of 10 and the T/C (T/C endpoint: median tumor weight (est.), dose: 1.56 mg/kg/injection, schedule: Q07DX005 (ip), vehicle: water, evaluated on day 33) was 127 % of control. For the same molecule, the survivor count (T/C endpoint: median tumor weight (est.), dose: 12.5 mg/kg/injection, schedule: Q07DX005 (ip), vehicle: water) was 5 of 10.
With `Cc1nnc2ncccn12` the T/C (T/C endpoint: median tumor weight change, dose: 125.0 mg/kg/injection, schedule: Q01DX001 (ip), vehicle: saline, evaluated on day 27) was 125 % of control, the survivor count (T/C endpoint: median tumor weight change, dose: 500.0 mg/kg/injection, schedule: Q01DX001 (ip), vehicle: saline) was 6 of 10 on day 27 and the survivor count (T/C endpoint: median tumor weight change, dose: 1000.0 mg/kg/injection, schedule: Q01DX001 (ip), vehicle: saline) was 0 of 10 on day 27. For the same molecule, the survivor count (T/C endpoint: median tumor weight change, dose: 2000.0 mg/kg/injection, schedule: Q01DX001 (ip), vehicle: saline) was 0 of 10 on day 27.
With `COc1cc2cc[n+](C)c(Cc3ccccc3)c2cc1OC` the survivor count [2] was 0 of 10 on day 30 and the survivor count (T/C endpoint: median tumor weight (est.), dose: 200.0 mg/kg/injection, schedule: Q07DX005 (ip), vehicle: saline with Tween-80) was 0 of 10 on day 30.
In the case of `CN(C)c1nc(N(C)C)nc(N(C)C)n1`, the T/C (T/C endpoint: mean tumor weight, dose: 400.0 mg/kg/injection, schedule: Q07DX006 (ip), vehicle: saline, evaluated on day 38) is reported as 139 % of control [7 of 10 alive], the survivor count (T/C endpoint: mean tumor weight, dose: 750.0 mg/kg/injection, schedule: Q07DX006 (ip), vehicle: saline) is reported as 3 of 10 and the T/C (T/C endpoint: median tumor weight (est.), dose: 12.5 mg/kg/injection, schedule: Q07DX005 (ip), vehicle: saline with Tween-80, evaluated on day 30) is reported as 139 % of control [8 of 10 alive]. For the same molecule, the survivor count (T/C endpoint: median tumor weight (est.), dose: 400.0 mg/kg/injection, schedule: Q07DX005 (ip), vehicle: saline with Tween-80) was 3 of 10, the survivor count (T/C endpoint: median tumor weight (est.), dose: 512.0 mg/kg/injection, schedule: Q07DX005 (ip), vehicle: acid diluted with saline) was 4 of 10 on day 30 and the survivor count (T/C endpoint: median tumor weight (est.), dose: 512.0 mg/kg/injection, schedule: Q07DX005 (ip), vehicle: saline with Tween-80) was 3 of 10 and 5 of 10. The T/C (T/C endpoint: median tumor weight change, dose: 200.0 mg/kg/injection, schedule: Q01DX001 (ip), vehicle: acid diluted with saline, evaluated on day 35) was 131 % of control and the survivor count (T/C endpoint: median tumor weight change, dose: 1600.0 mg/kg/injection, schedule: Q01DX001 (ip), vehicle: acid diluted with saline) was 1 of 10 on day 35 and 2 of 10 on day 33.
With `COc1cc2c(c(OC)c1OC)-c1ccc(OC)c(=O)cc1[C@@H](NC(C)=O)CC2` the survivor count (T/C endpoint: median tumor weight change, dose: 6.0 mg/kg/injection, schedule: Q01DX001 (ip), vehicle: saline) was 1 of 10 on day 26, the survivor count (T/C endpoint: median tumor weight change, dose: 6.0 mg/kg/injection, schedule: Q01DX001 (ip), vehicle: suspension in saline) was 0 of 10 on day 29 and the survivor count (T/C endpoint: median tumor weight change, dose: 12.0 mg/kg/injection, schedule: Q01DX001 (ip), vehicle: saline) was 1 of 10 on day 26. The survivor count (T/C endpoint: median tumor weight change, dose: 12.0 mg/kg/injection, schedule: Q01DX001 (ip), vehicle: suspension in saline) was 0 of 10 on day 29, the survivor count (T/C endpoint: median tumor weight change, dose: 12.5 mg/kg/injection, schedule: Q01DX001 (ip), vehicle: saline) was 0 of 10 on day 28 and the survivor count (T/C endpoint: median tumor weight change, dose: 24.0 mg/kg/injection, schedule: Q01DX001 (ip), vehicle: suspension in saline) was 0 of 10 on day 29. The survivor count (T/C endpoint: median tumor weight change, dose: 25.0 mg/kg/injection, schedule: Q01DX001 (ip), vehicle: saline) was 0 of 10 on day 28 and the survivor count (T/C endpoint: median tumor weight change, dose: 48.0 mg/kg/injection, schedule: Q01DX001 (ip), vehicle: suspension in saline) was 0 of 10 on day 29.
`NC(=S)N/N=C/c1ccc(O)cn1` was tested, and the T/C [3] was 137 % of control.
In the case of `Cc1oc2c(C)c3oc(=O)cc(C)c3cc2c1CCl`, the T/C (T/C endpoint: median tumor weight change, dose: 125.0 mg/kg/injection, schedule: Q01DX001 (ip), vehicle: saline with Tween-80, evaluated on day 25) is reported as 11 % of control, the T/C (T/C endpoint: median tumor weight change, dose: 125.0 mg/kg/injection, schedule: Q01DX001 (ip), vehicle: saline with Tween-80, evaluated on day 29) is reported as 117 % of control and the T/C (T/C endpoint: median tumor weight change, dose: 125.0 mg/kg/injection, schedule: Q01DX001 (ip), vehicle: saline with Tween-80, evaluated on day 32) is reported as 64 % of control. The T/C (T/C endpoint: median tumor weight change, dose: 125.0 mg/kg/injection, schedule: Q01DX001 (ip), vehicle: saline with Tween-80, evaluated on day 40) was 49 % of control, the T/C (T/C endpoint: median tumor weight change, dose: 250.0 mg/kg/injection, schedule: Q01DX001 (ip), vehicle: saline with Tween-80, evaluated on day 25) was 21 % of control [9 of 10 alive on day 25] and the T/C (T/C endpoint: median tumor weight change, dose: 250.0 mg/kg/injection, schedule: Q01DX001 (ip), vehicle: saline with Tween-80, evaluated on day 29) was 137 % of control. For the same molecule, the T/C (T/C endpoint: median tumor weight change, dose: 250.0 mg/kg/injection, schedule: Q01DX001 (ip), vehicle: saline with Tween-80, evaluated on day 32) was 60 % of control, the survivor count (T/C endpoint: median tumor weight change, dose: 250.0 mg/kg/injection, schedule: Q01DX001 (ip), vehicle: saline with Tween-80) was 3 of 10 on day 40 and the survivor count (T/C endpoint: median tumor weight change, dose: 1000.0 mg/kg/injection, schedule: Q01DX001 (ip), vehicle: saline with Tween-80) was 0 of 10 on day 32 and 2 of 10 on day 25. For the same molecule, the survivor count (T/C endpoint: median tumor weight change, dose: 2000.0 mg/kg/injection, schedule: Q01DX001 (ip), vehicle: saline with Tween-80) was 0 of 10 on day 25, 0 of 10 on day 29, 0 of 10 on day 32.
For `Cn1cnc([N+](=O)[O-])c1S(=O)(=O)NCN1CCOCC1`, the T/C (T/C endpoint: median tumor weight (est.), dose: 50.0 mg/kg/injection, schedule: Q07DX005 (ip), vehicle: Klucel (hydroxypropylcellulose) (HPC), evaluated on day 30) was 146 % of control [9 of 10 alive], the T/C (T/C endpoint: median tumor weight (est.), dose: 200.0 mg/kg/injection, schedule: Q07DX005 (ip), vehicle: Klucel (hydroxypropylcellulose) (HPC), evaluated on day 30) was 126 % of control [9 of 10 alive] and the survivor count (T/C endpoint: median tumor weight (est.), dose: 200.0 mg/kg/injection, schedule: Q07DX005 (ip), vehicle: Klucel (hydroxypropylcellulose) (HPC)) was 6 of 10 on day 30. For the same molecule, the survivor count (T/C endpoint: median tumor weight (est.), dose: 400.0 mg/kg/injection, schedule: Q07DX005 (ip), vehicle: Klucel (hydroxypropylcellulose) (HPC)) was 0 of 10 on day 30 and the survivor count (T/C endpoint: median tumor weight (est.), dose: 800.0 mg/kg/injection, schedule: Q07DX005 (ip), vehicle: Klucel (hydroxypropylcellulose) (HPC)) was 0 of 10 on day 30.
In the case of `CN(C)CCN1C(=O)c2cccc3cc([N+](=O)[O-])cc(c23)C1=O`, the survivor count (T/C endpoint: median tumor weight change, dose: 60.0 mg/kg/injection, schedule: Q01DX001 (ip), vehicle: saline with Tween-80) is reported as 4 of 10 on day 32 and the survivor count (T/C endpoint: median tumor weight change, dose: 120.0 mg/kg/injection, schedule: Q01DX001 (ip), vehicle: saline with Tween-80) is reported as 0 of 10 on day 32.
`Cc1cc(NS(=O)(=O)c2ccc(N=Nc3cc(N=Nc4ccc(S(=O)(=O)Nc5cc(C)nc(C)n5)cc4)c4c(NC(=O)C(Cl)Cl)cccc4c3OC(=O)C(Cl)Cl)cc2)nc(C)n1` (tested in a mixture with another compound) was tested, and the T/C (T/C endpoint: median tumor weight change, dose: 125.0 mg/kg/injection, schedule: Q01DX001 (ip), vehicle: suspension in saline, evaluated on day 41) was 125 % of control, the survivor count (T/C endpoint: median tumor weight change, dose: 1000.0 mg/kg/injection, schedule: Q01DX001 (ip), vehicle: suspension in saline) was 3 of 10 on day 41 and the survivor count (T/C endpoint: median tumor weight change, dose: 2000.0 mg/kg/injection, schedule: Q01DX001 (ip), vehicle: suspension in saline) was 0 of 10 on day 41.
`COc1cc(C[C@H]2c3cc(OC)c(OC)cc3CCN2C)c(Oc2cc3c(cc2OC)-c2c(OC)c(OC)cc4c2[C@H](C3)N(C)CC4)cc1OC` was tested, and the T/C (T/C endpoint: median tumor weight (est.), dose: 25.0 mg/kg/injection, schedule: Q07DX005 (ip), vehicle: saline, evaluated on day 30) was 131 % of control and the T/C (T/C endpoint: median tumor weight (est.), dose: 100.0 mg/kg/injection, schedule: Q07DX005 (ip), vehicle: saline, evaluated on day 30) was 129 % of control.
With `CC[C@H](CC[C@@H](C)C1CC[C@H]2[C@@H]3CC=C4C[C@@H](OP(=O)(N5CC5)N5CC5)CC[C@]4(C)[C@H]3CC[C@]12C)C(C)C` (stereo partly drawn) the T/C [3] was 138 % of control [9 of 10 alive on day 30].
